From PubChem BioAssay AID248 (DTP/NCI, 2004)
The list does not hold the whole screen: it gathers tests that were run many times, whatever their T/C, doses with no T/C, and many T/C values between a quarter and a half above the control. Further doses and runs are listed elsewhere. T/C is the treated group as % of the vehicle group. Some entries give survivors of the animals treated and no T/C: the source files T/C as zero there, which appears to mark a toxic dose or a test without result, not a measured value. Some survivor counts are full or nearly so, which does not show that the dose was tolerated: survival well below the control is almost never listed, so the zero probably covers shortened survival too. Counts of survivors are from the toxicity check (mostly the fifth day) where no day follows; animals may have died later. Schedule codes are those of the source, taken here to give the interval after Q, in days (D) or hours (H), and the number of doses after X. Some schedule codes hold Z or #, which are not explained here. For survival time, this PubChem deposit counts one and a half times the control or more as active, and values a quarter to a half above the control carry no call in these data; other NCI protocols may use other cut-offs. Some T/C values are followed by the survivors on the day toxicity was checked, most often the fifth; without a count, all were alive then. Some entries hold several experiments; the results are listed from low to high. Brackets with × give the number of equal values in this list.

System: L1210 leukemia ip in BDF1 mice, survival T/C
Assay: NCI In Vivo Anticancer Drug Screen. Data for tumor model L1210 Leukemia (intraperitoneal) in B6D2F1 (BDF1) mice
Settings: T/C endpoint: mean survival time, higher T/C = longer survival
[1] = dose: 0.5 mg/kg/injection, schedule: Q01DX010 (ip), vehicle: saline

CC[C@]1(O)C[C@H]2CN(CCc3c([nH]c4ccccc34)[C@@](C(=O)OC)(c3cc4c(cc3OC)N(C=O)[C@H]3[C@@](O)(C(=O)OC)[C@H](OC(C)=O)[C@]5(CC)C=CCN6CC[C@]43[C@@H]65)C2)C1
T/C (dose: 0.03 mg/kg/injection, schedule: Q01DX010 (ip), vehicle: saline): 106 (2×), 108, 111 % of control | T/C (dose: 0.06 mg/kg/injection, schedule: Q01DX010 (ip), vehicle: saline): 113, 115, 116, 120 % of control | T/C (dose: 0.1 mg/kg/injection, schedule: Q03HX032 (ip), vehicle: saline): 126 % of control | T/C (dose: 0.1 mg/kg/injection, schedule: Q## X032 (ip), vehicle: saline): 126 % of control | T/C (dose: 0.11 mg/kg/injection, schedule: Q01DX009 (ip), vehicle: saline): 128 % of control | T/C (dose: 0.12 mg/kg/injection, schedule: Q01DX010 (ip), vehicle: saline): 120, 130, 132, 134 % of control | T/C (dose: 0.15 mg/kg/injection, schedule: Q03HX032 (ip), vehicle: saline): 126 % of control | T/C (dose: 0.15 mg/kg/injection, schedule: Q## X032 (ip), vehicle: saline): 126 % of control | T/C (dose: 0.2 mg/kg/injection, schedule: Q01DX015 (ip), vehicle: saline): 131 % of control | T/C (dose: 0.25 mg/kg/injection, schedule: Q01DX010 (ip), vehicle: saline): 103, 113, 137, 138 % of control | T/C (dose: 0.25 mg/kg/injection, schedule: Q01DX Z (ip), vehicle: saline): 139 % of control | T/C (dose: 0.29 mg/kg/injection, schedule: Q04DX002 (ip), vehicle: saline): 106, 119 (2×), 123 % of control | T/C (dose: 0.3 mg/kg/injection, schedule: Q01DX009 (ip), vehicle: saline): 145 % of control | T/C (dose: 0.39 mg/kg/injection, schedule: Q04DX003 (ip), vehicle: saline, evaluated on day 30): 127 % of control | T/C (dose: 0.39 mg/kg/injection, schedule: Q04DX003 (ip), vehicle: saline, evaluated on day 45): 113, 115, 120, 123 % of control | T/C (dose: 0.4 mg/kg/injection, schedule: Q01DX015 (ip), vehicle: saline): 147 % of control | T/C [1]: 98 and 105 % of control | survivor count [1]: 6 of 6 | T/C (dose: 0.5 mg/kg/injection, schedule: Q01DX Z (ip), vehicle: water): 127 % of control | T/C (dose: 0.58 mg/kg/injection, schedule: Q04DX002 (ip), vehicle: saline): 106, 112, 115, 122 % of control | T/C (dose: 0.65 mg/kg/injection, schedule: Q04DX003 (ip), vehicle: saline, evaluated on day 30): 136 % of control | T/C (dose: 0.65 mg/kg/injection, schedule: Q04DX003 (ip), vehicle: saline, evaluated on day 45): 109, 124, 131, 148 % of control | survivor count (dose: 0.8 mg/kg/injection, schedule: Q01DX005 (ip), vehicle: saline): 5 of 6 | T/C (dose: 1.0 mg/kg/injection, schedule: Q01DX001 (ip), vehicle: saline): 131 % of control | survivor count (dose: 1.0 mg/kg/injection, schedule: Q01DX Z (ip), vehicle: saline): 5 of 7 | T/C (dose: 1.0 mg/kg/injection, schedule: Q04DX004 (ip), vehicle: saline): 138 % of control | T/C (dose: 1.08 mg/kg/injection, schedule: Q04DX003 (ip), vehicle: saline, evaluated on day 30): 169 % of control | T/C (dose: 1.08 mg/kg/injection, schedule: Q04DX003 (ip), vehicle: saline, evaluated on day 45): 113, 127, 151, 163 % of control | T/C (dose: 1.15 mg/kg/injection, schedule: Q04DX002 (ip), vehicle: saline): 129 % of control | T/C (dose: 1.5 mg/kg/injection, schedule: Q04DX004 (ip), vehicle: saline): 127, 131, 137 % of control | survivor count (dose: 1.56 mg/kg/injection, schedule: Q04DX002 (ip), vehicle: saline): 3 of 3 | survivor count (dose: 1.6 mg/kg/injection, schedule: Q01DX005 (ip), vehicle: saline): 0 of 6 | survivor count (dose: 1.6 mg/kg/injection, schedule: Q01DX005 (iv), vehicle: saline): 2 of 6 | T/C (dose: 1.8 mg/kg/injection, schedule: Q01DX001 (ip), vehicle: saline): 129 % of control | T/C (dose: 1.8 mg/kg/injection, schedule: Q04DX003 (ip), vehicle: saline, evaluated on day 30): 121 % of control | T/C (dose: 1.8 mg/kg/injection, schedule: Q04DX003 (ip), vehicle: saline, evaluated on day 45): 112, 113, 121, 122 % of control | T/C (dose: 2.3 mg/kg/injection, schedule: Q04DX002 (ip), vehicle: saline): 110, 112 [2 of 2 alive], 122, 128 % of control | T/C (dose: 3.0 mg/kg/injection, schedule: Q01DX001 (ip), vehicle: water): 128 % of control | T/C (dose: 3.0 mg/kg/injection, schedule: Q04DX004 (ip), vehicle: saline): 132 % of control | survivor count (dose: 3.13 mg/kg/injection, schedule: Q04DX002 (ip), vehicle: saline): 3 of 3 | survivor count (dose: 6.25 mg/kg/injection, schedule: Q04DX002 (ip), vehicle: saline): 3 of 3 | survivor count (dose: 6.5 mg/kg/injection, schedule: Q01DX001 (ip), vehicle: saline): 9 of 10 | survivor count (dose: 8.0 mg/kg/injection, schedule: Q01DX001 (ip), vehicle: saline): 10 of 10 | survivor count (dose: 12.5 mg/kg/injection, schedule: Q04DX002 (ip), vehicle: saline): 3 of 3 | survivor count (dose: 25.0 mg/kg/injection, schedule: Q04DX002 (ip), vehicle: saline): 1 of 3 | survivor count (dose: 50.0 mg/kg/injection, schedule: Q04DX002 (ip), vehicle: saline): 2 of 3 | survivor count (dose: 100.0 mg/kg/injection, schedule: Q04DX002 (ip), vehicle: saline): 0 of 3 | survivor count (dose: 200.0 mg/kg/injection, schedule: Q04DX002 (ip), vehicle: saline): 0 of 3 | survivor count (dose: 400.0 mg/kg/injection, schedule: Q04DX002 (ip), vehicle: saline): 0 of 3
